Experimental data reported in the supplement of paper PMC10849652.
The other results are listed elsewhere or left out.

Protein sequences, listed by entry. Tags and fused reporters are not part of them. Lines headed by an entry give the natural chain unless they say otherwise; changes in a name come on top.
UniProt P13747, whole entry, looked up: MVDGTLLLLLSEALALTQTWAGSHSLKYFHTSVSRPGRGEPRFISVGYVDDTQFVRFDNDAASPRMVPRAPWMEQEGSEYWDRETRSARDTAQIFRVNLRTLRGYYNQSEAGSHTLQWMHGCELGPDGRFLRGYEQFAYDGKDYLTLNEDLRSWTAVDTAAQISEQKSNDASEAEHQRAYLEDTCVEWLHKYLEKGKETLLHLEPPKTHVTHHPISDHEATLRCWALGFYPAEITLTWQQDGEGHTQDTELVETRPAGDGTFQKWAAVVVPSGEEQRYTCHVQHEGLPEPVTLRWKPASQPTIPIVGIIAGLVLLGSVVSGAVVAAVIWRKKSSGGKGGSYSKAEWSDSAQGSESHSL
UniProt Q8TCT9: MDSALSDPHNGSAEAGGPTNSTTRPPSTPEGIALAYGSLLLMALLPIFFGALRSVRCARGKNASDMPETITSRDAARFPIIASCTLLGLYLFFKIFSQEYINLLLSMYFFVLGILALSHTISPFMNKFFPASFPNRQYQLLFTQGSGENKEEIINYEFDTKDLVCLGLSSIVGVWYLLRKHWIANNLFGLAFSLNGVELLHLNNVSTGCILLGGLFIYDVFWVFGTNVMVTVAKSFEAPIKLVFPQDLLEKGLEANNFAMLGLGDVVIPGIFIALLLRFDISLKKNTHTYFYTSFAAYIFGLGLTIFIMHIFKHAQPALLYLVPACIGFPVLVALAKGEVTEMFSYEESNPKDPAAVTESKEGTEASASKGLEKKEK
UniProt Q13151: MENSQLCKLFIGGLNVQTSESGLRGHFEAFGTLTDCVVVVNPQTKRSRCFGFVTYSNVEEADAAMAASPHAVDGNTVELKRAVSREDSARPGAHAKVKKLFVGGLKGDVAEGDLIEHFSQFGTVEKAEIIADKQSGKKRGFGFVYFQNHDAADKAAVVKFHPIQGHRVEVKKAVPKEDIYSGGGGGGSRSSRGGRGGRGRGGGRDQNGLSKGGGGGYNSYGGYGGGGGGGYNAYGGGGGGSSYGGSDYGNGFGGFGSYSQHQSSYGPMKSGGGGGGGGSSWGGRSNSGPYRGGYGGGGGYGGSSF
UniProt Q99729: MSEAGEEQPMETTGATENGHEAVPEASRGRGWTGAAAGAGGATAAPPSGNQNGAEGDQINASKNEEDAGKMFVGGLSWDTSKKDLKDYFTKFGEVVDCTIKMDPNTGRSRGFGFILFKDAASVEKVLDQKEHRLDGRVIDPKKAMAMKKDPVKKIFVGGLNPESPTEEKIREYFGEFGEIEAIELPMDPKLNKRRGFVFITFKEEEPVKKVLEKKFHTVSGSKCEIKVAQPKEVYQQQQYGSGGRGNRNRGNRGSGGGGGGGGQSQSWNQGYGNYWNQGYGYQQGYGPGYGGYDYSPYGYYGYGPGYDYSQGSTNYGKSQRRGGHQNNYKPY
UniProt Q659A1: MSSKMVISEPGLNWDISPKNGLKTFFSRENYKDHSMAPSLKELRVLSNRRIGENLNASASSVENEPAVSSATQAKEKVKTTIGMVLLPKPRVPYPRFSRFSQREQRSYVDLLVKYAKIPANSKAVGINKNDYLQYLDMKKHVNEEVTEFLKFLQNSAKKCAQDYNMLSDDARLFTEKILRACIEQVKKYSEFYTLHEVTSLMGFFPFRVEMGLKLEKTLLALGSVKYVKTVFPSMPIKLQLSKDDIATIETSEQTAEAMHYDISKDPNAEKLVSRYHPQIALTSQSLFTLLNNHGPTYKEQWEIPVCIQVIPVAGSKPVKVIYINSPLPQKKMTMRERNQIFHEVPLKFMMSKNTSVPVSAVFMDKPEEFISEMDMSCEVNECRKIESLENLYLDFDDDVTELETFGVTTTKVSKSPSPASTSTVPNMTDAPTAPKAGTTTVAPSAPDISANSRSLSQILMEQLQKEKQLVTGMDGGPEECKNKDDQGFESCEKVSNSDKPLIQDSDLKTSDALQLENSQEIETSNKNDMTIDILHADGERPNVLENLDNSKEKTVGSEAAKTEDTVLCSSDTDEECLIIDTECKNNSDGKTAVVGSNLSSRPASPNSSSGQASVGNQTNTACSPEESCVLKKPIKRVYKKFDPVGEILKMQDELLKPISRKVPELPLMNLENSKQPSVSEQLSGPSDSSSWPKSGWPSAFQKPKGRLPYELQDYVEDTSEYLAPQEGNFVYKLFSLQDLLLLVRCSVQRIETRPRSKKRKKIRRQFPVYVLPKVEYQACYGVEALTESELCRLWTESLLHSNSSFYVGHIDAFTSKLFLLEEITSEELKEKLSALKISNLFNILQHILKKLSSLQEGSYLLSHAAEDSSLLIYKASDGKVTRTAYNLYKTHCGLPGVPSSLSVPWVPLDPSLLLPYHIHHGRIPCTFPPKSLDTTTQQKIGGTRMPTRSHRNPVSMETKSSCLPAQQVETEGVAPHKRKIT
UniProt P14735, whole entry, looked up: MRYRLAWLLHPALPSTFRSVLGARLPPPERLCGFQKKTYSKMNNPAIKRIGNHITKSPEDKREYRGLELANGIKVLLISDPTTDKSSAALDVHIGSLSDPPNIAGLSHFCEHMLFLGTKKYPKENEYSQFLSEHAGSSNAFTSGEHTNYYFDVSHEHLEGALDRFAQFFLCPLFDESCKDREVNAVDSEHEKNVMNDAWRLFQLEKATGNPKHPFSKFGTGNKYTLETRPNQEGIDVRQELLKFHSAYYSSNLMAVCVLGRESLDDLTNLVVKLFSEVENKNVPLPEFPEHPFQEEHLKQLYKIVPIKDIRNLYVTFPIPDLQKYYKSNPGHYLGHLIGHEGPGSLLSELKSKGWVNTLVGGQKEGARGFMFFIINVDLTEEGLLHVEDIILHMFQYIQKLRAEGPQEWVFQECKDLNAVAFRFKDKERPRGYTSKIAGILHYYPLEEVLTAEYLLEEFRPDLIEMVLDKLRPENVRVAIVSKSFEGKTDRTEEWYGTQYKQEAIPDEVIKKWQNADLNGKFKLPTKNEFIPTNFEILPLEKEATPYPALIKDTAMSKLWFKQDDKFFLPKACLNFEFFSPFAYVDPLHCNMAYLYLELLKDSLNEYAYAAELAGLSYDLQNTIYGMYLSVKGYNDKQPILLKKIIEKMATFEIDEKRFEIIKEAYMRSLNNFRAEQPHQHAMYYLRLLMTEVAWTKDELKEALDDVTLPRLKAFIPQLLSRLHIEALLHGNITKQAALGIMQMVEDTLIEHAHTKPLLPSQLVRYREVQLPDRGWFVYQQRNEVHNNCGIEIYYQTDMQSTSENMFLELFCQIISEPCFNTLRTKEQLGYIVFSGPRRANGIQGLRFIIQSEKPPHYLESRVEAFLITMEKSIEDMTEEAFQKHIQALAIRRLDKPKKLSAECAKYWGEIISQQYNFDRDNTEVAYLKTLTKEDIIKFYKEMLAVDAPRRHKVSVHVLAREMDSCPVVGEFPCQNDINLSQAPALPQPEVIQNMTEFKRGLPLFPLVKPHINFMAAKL
UniProt Q8TB92: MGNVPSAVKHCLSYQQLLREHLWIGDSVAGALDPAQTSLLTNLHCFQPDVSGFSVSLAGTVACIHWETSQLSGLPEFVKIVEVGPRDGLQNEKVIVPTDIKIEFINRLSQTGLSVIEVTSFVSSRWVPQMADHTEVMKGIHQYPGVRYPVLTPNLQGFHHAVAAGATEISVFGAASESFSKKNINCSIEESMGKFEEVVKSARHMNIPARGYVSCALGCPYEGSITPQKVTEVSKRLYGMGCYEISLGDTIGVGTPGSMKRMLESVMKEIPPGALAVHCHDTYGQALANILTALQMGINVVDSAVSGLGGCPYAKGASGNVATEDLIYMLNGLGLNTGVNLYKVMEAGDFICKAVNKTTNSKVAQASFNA
UniProt O75330: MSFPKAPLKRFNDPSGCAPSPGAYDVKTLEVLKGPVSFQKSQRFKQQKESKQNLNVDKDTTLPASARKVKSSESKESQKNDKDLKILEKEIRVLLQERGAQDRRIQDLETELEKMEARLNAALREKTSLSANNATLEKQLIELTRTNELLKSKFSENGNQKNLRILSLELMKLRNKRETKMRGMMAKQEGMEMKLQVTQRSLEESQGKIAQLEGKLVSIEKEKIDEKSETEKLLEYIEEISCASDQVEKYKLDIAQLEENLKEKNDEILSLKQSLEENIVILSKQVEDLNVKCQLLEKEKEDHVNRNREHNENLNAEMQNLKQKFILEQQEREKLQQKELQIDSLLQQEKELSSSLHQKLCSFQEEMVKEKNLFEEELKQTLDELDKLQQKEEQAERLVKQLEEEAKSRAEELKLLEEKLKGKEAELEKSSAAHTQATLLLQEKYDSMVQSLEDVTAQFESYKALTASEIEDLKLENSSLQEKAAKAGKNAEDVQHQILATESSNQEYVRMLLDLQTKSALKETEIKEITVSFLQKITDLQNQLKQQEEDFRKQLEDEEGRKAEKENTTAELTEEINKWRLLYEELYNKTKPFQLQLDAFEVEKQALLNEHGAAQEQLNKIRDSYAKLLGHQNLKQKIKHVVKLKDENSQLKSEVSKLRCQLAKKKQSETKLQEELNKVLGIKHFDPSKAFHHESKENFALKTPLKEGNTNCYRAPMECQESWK
UniProt Q6DN03, whole entry, looked up: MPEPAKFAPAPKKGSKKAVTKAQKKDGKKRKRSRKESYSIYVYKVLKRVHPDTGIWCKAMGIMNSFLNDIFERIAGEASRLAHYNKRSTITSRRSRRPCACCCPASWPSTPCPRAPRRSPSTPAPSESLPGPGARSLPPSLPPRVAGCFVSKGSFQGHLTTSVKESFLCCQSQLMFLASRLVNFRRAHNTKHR

Columns and labels:
Assay in all cases: log2 fold change, soluble protein after heating vs DMSO (PISA); higher = thermal stabilisation; K562 cells, 10 uM, 30 min; active = over 0.2 and 3.5 SD of the protein, either way, in both replicates (recomputed)
[1] = compound: Cc1ccc(NC(=O)c2ccc(CN3CC[C@H](N(C)C)C3)c(C(F)(F)F)c2)cc1Nc1nccc(-c2cncnc2)n1 [bafetinib]
In short: (§1)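 Soluble protein was quantified by TMTpro 16plex LC-MS/MS after channel sums were equalised. It was obtained as the supernatant after 21,000xg for 90 min from pooled aliquots of K562 cells (2×10^6 cells/mL, 10 μM compound, 30 min) heated for 3 min across 48°C-58°C and extracted in PBS with 0.5% NP-40 at 4°C. Thermal stability values are relative to control samples and come from duplicates. They are given as log2 fold changes.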

[2] = compound: Cc1cccc(CC(=O)N2CCc3c2ccc(-c2cn(C)c4ncnc(N)c24)c3F)n1
In short: as §1

[3] = compound: Cc1nc(Nc2ncc(C(=O)Nc3c(C)cccc3Cl)s2)cc(N2CCN(CCO)CC2)n1 [dasatinib]
In short: as §1

[4] = compound: Cn1cc(-c2ccc3c(c2)CCN3C(=O)Cc2cccc(C(F)(F)F)c2)c2c(N)ncnc21
In short: as §1

[5] = compound: Cn1cncc1[C@@](N)(c1ccc(Cl)cc1)c1ccc2c(c1)c(-c1cccc(Cl)c1)cc(=O)n2C [tipifarnib]
In short: as §1

[6] = compound: Cc1cn(-c2cc(NC(=O)c3ccc(C)c(Nc4nccc(-c5cccnc5)n4)c3)cc(C(F)(F)F)c2)cn1 [nilotinib]
In short: as §1

[7] = compound: Cc1nc(Nc2n[nH]c3c2CN(C(=O)N[C@H](CN(C)C)c2ccccc2)C3(C)C)c2sccc2n1
In short: as §1

[8] = compound: Cc1ncc(-c2ccnc(Nc3ccc(S(C)(=O)=O)cc3)n2)n1C(C)C
In short: as §1

[9] = compound: Cn1cc(-c2ccc3nnc(C(F)(F)c4ccc5ncccc5c4)n3n2)cn1
In short: as §1

[10] = compound: FC(F)(F)c1ccc(/C=C/c2nc(COc3ccc(CCCCn4ccnn4)cc3)co2)cc1 [mubritinib]
In short: as §1

Measured: log2 fold change

HLA-E (UniProt P13747)
inactive: [1] -0.161 | [2] -0.02 | [3] 0.038 | [4] -0.059 | [5] 0.041

HM13 isoform 2 (UniProt Q8TCT9)
inactive: [1] -0.058 | [2] -0.007 | [6] -0.045 | [7] 0.02 | [3] 0.033 | [8] -0.048 | [4] -0.001 | [9] 0.012 | [5] 0.052 | [10] 0.033

HNRNPA0 (UniProt Q13151)
inactive: [1] 0.118 | [2] -0.104 | [6] -0.086 | [7] 0.1 | [3] 0.054 | [8] 0.064 | [4] -0.104 | [5] -0.012 | [10] -0.103

HYOU1, A0A494C039
inactive: [1] 0.014 | [2] -0.004 | [6] -0.01 | [7] -0.108 | [3] 0.062 | [8] 0.087 | [4] -0.154 | [10] -0.022

HNRNPAB isoform 3 (UniProt Q99729)
inactive: [1] 0.038 | [2] -0.034 | [6] 0.019 | [7] 0.174 | [3] 0.247 | [8] 0.163 | [4] -0.127 | [9] -0.064 | [5] 0.06 | [10] -0.064

ICE2 (UniProt Q659A1)
inactive: [1] 0.077 | [2] -0.185 | [4] -0.097

IDE (UniProt P14735)
inactive: [1] 0.011 | [2] 0.014 | [6] -0.017 | [7] -0.042 | [3] -0.136 | [8] -0.034 | [4] 0.017 | [9] -0.045 | [5] -0.064 | [10] 0.037

HNRNPK isoform 3 (UniProt P61978)
inactive: [1] 0.003 | [2] -0.18 | [6] -0.115 | [7] -0.022 | [3] 0.021 | [8] 0.143 | [9] -0.002 | [10] -0.101

HUWE1, A0A087X1S3
inactive: [1] 0.029 | [2] 0.085 | [3] -0.087 | [4] -0.079

2 records picked at random from those above, as already listed:
HUWE1, A0A087X1S3
inactive: [1] 0.029 | [2] 0.085 | [3] -0.087 | [4] -0.079

HNRNPAB isoform 3 (UniProt Q99729)
inactive: [1] 0.038 | [2] -0.034 | [6] 0.019 | [7] 0.174 | [3] 0.247 | [8] 0.163 | [4] -0.127 | [9] -0.064 | [5] 0.06 | [10] -0.064

Further results

HMGCLL1 (UniProt Q8TB92)
inactive: [1] -0.118 | [2] -0.032 | [6] -0.035 | [7] -0.058 | [3] -0.064 | [8] -0.011 | [4] 0.069 | [10] 0.083

HMMR isoform 3 (UniProt O75330)
inactive: [1] 0.008 | [2] 0.053 | [6] -0.069 | [7] -0.065 | [3] -0.083 | [8] 0.007 | [4] 0 | [9] -0.019 | [5] -0.041 | [10] 0.04

HIST2H2BC (UniProt Q6DN03)
inactive: [1] 0.114 | [2] -0.206 | [6] -0.045 | [7] 0.029 | [3] 0.218 | [8] -0.001 | [9] -0.048 | [5] 0.12 | [10] -0.222

HSPA8 (UniProt E9PK54)
active: [4] -0.409
inactive: [1] 0.096 | [2] -0.069 | [6] -0.105 | [7] -0.011 | [3] 0.011 | [8] 0.072 | [9] 0.062 | [5] 0.227 | [10] 0.024
